In publication PMC11514876 one finds binding data, which are given here for 2 molecules.

Protein sequences, listed by entry. Tags and fused reporters are not part of them.
UniProt Q9QZL0: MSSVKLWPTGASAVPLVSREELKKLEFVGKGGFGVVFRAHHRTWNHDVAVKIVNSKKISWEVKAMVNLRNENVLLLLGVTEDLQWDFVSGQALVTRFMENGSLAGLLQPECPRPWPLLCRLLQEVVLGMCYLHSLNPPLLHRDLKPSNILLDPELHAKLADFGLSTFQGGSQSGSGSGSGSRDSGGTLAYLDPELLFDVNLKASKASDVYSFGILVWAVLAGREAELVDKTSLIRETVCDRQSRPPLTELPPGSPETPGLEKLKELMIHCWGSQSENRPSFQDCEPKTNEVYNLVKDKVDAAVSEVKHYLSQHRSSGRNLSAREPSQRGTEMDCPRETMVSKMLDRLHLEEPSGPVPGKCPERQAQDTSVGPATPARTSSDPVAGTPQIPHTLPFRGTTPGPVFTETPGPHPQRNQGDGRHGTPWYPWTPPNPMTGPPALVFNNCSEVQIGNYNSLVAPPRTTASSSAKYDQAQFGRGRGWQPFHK

Assay [1] addresses T1, Z-DNA binding protein 1 (ZBP1), endogenous in mouse pulmonary vascular endothelial cells (mouse (endogenous in MPVECs)) (UniProt Q9QY24).
T1 sequence: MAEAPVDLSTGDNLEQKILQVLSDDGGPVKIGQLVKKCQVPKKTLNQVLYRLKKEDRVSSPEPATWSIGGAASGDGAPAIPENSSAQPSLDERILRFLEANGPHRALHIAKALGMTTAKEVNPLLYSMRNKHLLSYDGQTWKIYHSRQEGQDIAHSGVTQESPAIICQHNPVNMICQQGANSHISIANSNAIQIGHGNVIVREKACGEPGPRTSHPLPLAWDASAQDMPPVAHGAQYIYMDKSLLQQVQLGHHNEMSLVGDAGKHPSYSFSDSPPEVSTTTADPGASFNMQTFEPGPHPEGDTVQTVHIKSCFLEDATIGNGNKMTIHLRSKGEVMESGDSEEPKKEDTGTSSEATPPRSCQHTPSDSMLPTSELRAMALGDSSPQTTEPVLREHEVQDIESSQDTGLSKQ
Nature of the assay: proximity ligation; Duolink PLA on fixed primary MPVECs with antibodies to the two proteins; cells treated with LPS and rmCIRP for 36 h (ZBP1-RIPK3), or with LPS alone or LPS and rmCIRP for 12 h (ZBP1-CIRP, ZBP1-TRIM32).

Assay [2] concerns the target T1, Z-DNA binding protein 1 (ZBP1), endogenous in mouse pulmonary vascular endothelial cells (mouse (endogenous in MPVECs)). Nature of the assay: co-IP; IP with anti-ZBP1 or control IgG from lysates of WT primary MPVECs after 36 h of LPS and rmCIRP; immunoblot. (In general: A western blot detects proteins with antibodies after separation by electrophoresis.)
Assay [3] has the same target. Nature of the assay: proximity ligation; Duolink PLA on fixed primary MPVECs with antibodies to the two proteins; cells treated with LPS and rmCIRP for 36 h (ZBP1-RIPK3), or with LPS alone or LPS and rmCIRP for 12 h (ZBP1-CIRP, ZBP1-TRIM32). The source holds these as a separate data set.
Assay [4] shares this target. The assay can be described thus: co-IP; cells treated with LPS alone or LPS with rmCIRP for 12 h; CIRP and ZBP1 in the precipitated complexes shown by Western blotting; precipitating antibody not stated.

Results are given in words; binding and its absence hold for the method and conditions named. In cells and extracts the contact can be indirect. Some binding calls cover weakened binding; strength is not graded here.

As to “receptor-interacting protein kinase 3 (RIPK3), endogenous in MPVECs (from UniProt Q9QZL0 1-486)”, the binding result in assay [1] and in assay [2] was “binds” each time.

B1: recombinant mouse cold-inducible RNA-binding protein (rmCIRP) (protein, UniProt P60824 1-172)
chain: MASDEGKLFVGGLSFDTNEQALEQVFSKYGQISEVVVVKDRETQRSRGFGFVTFENIDDAKDAMMAMNGKSVDGRQIRVDQAGKSSDNRSRGYRGGSAGGRGFFRGGRSRGRGFSRGGGDRGYGGGRFESRSGGYGGSRDYYASRSQGGSYGYRSSGGSYRDSYDSYATHNE
In the case of B1, the binding entry in assay [3] and in assay [4] was “binds” each time.
